The series is described as follows: Photo-catalysed Fisher esterification of acetic acid in ethanol, ethyl acetate analysed by HPLC. To be noted: for yield of ethyl acetate: acetic acid […], photoacid 3.1 mM in ethanol, irradiated at 419 and 570 nm.

SMILES strings stand for the structures.

On to `CC1(C)C(/C=C/c2ccccc2O)=[N+](CCCS(=O)(=O)[O-])c2ccccc21` [photoacid 1], for which the “yield of ethyl acetate” value is given as 33% (1 hr), 50% (2 hr) and 66% (3 hr). Moreover, the “esterification reaction in the dark” value (mixture kept in the dark) is on record as “No reaction was detected”.

The record behind these values is patent US10208029B2, “Photoacid compositions having extended lifetime of proton dissociation state” (University of Central Florida Research Foundation, Inc., priority 2013, dated 2019).
